# Measurements taken from patent US6303317A, “Peptide probes and methods for making the same” (The Regents of the University of California, priority 1998, dated 2001).
# Not every detail of the peptide structures is certain; ends, links or a residue may be inferred. Where no end group is shown, it is not given here. [ ]: non-standard residue; d: D form. Nle = CCCC[C@H](N)C(=O)O
# Tests used:
# [1] = target: T1, N-terminal APC coiled coil (APC-55) (Homo sapiens, UniProt P25054); assay: Thermal denaturation followed by circular dichroism at 222 nm (apparent Tm); type: physicochemical; details: for Apparent Tm: 10 mM phosphate pH 7.0 and 100 mM potassium flouride, midpoint of CD thermal denaturation at 222 nm; for Tm (thermal stability): 20 μM peptide concentration in PBS (pH 7.0)
# T1 construct: APC-55, a peptide corresponding to amino acids 2-55 of human APC; made in house; host or cells: E. coli BL21 (DE3), pAED4 plasmid
# T1 sequence (P25054 2-55): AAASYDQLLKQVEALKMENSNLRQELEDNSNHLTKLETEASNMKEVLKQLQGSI
# Protocol: Circular dischroism investigations are well known in the art. For example, such an investigation may be performed using a 1 cm or 1 mm cuvette (Helma or Uvonic) on an Aviv CD spectrophotometer (model 60DS or model 62DS) equipped with a thermoelectric controller. The buffer used for all CD experiments except pH titrations is 100 mM KF, 10 mM potassium phosphate (pH 7.0). All peptide concentrations may be determined by tyrosine absorbance at 275.5 nm in 6.0 M GuHCl PH 6.5 (Schwarz/Mann Biotech Ultra-Pure grade) using an Aviv UV/VIS spectrophotometer (model 1 BDS or 14 DS). The molar ellipticity at 222 nm, 5° C., is measured for the homo- and heterodimers. The CD values (i.e., deg cm^2 and dmol^-1) indicate % helicity of the peptides. Thermal melting curves are determined by monitoring the CD signal at 222 nm as a function of temperature. The pH dependence of stability may be measured in 100 mM KF, 10 mM potassium phosphate at various pH values. GuHCl (Schwarz/Mann Biotech Ultra-Pure grade) (e.g., 2M) may be included in the buffer used for monitoring the pH dependence of stability. pH stability is indicated if the same overall shape of the pH dependence curve is obtained in the absence as well as the presence of GuHCl. It is also desirable to determine the reversibility for all thermal melts. The absence of reversibility of a melting curve above a certain pH value indicates chemical modification and/or degradation of the polypeptide. Such modification and/or degradation may be confirmed using HPLC.
# Thermal denaturation is used to determine Tm. The term "Tm " refers to the temperature at which the fraction of a polypeptide which is unfolded is equal to the fraction folded (ΔG=0). The Tm is determined by curve fitting a thermal denaturation curve (described supra) to an equation known in the art (see, O'Shea et al (1992) Cell 68:699-708) using a nonlinear least squares-fitting program (e.g., Kaledagraph, Synergy Software). Alternatively, the Tm for each polypeptide may also be determined by taking the first derivative of the CD signal (β) with respect to temperature^-1 (temperature in K) and finding the minimum of this function (Cantor and Schimmel, 1980). Similarly, denaturation induced by additives such as urea or GuHCl can be followed by circular dichroism. These measurements can yield the Cm, i.e., the denaturant concentration where ΔG=0. Linear extrapolation of the transition to zero denaturant can yield the equilibrium constant in aqueous buffer. This can be converted to a free energy of association using the formula ΔG=--RTlnK [Cantor and Schimmel (1980) supra).
# CD spectra (180-300 nm) for the APC-55 and anti-APCp1 peptides alone and in combination were recorded in a 1 mm quartz cuvette at 5° C. using an Aviv 62DS circular dichroism spectrophotometer. The concentrations of peptide stocks were determined optically by the method of Gill and vonHippel, Anal. Biochem 182:319-326 (1989). Peptide stocks were diluted in 10 mM KPO4, 100 mM KF, pH 7.0. Thermal denaturations were carried out in steps of 1-3° C. with 2 minutes for equilibration and one minute for data averaging. Thermal transitions were >95% reversible. The results in FIGS. 3 and 4 obtained with the APC-55 alone are shown by open circles (.largecircle.), with the anti-APCp1 alone by squares (.quadrature.), and with an equimolar mixture of APC-55 and anti-APCp1 with closed circles (.circle-solid.).
# [2] = target: T2, GST-APC fusion proteins (Homo sapiens, UniProt P25054); assay: Western blot of E. coli lysates containing GST-APC fusion proteins, probed with biotinylated peptide; type: binding; details: all other E. coli proteins present; 5 nM biotinylated peptide
# T2 construct: the first 55 amino acids of the human APC protein (heptad repeat 1); made in house; host or cells: E. coli BL21 (DE3), whole cell lysate
# T2 sequence (P25054 1-55): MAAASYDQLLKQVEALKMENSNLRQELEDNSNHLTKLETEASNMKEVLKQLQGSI
# [3] = tested on: GST-APC fusion proteins; assay: as above; type: binding, human; details: FIG. 6B, lane 4
# [4] = tested on: APC protein; assay: Precipitation of APC from human colon cancer cell line lysates with biotinylated probe and streptavidin particles; type: binding
# Protocol: Precipitation experiments were carried out in order to determine whether the anti-APCp1 polypeptide probe was capable of detecting the low in vivo levels of APC which are typically present in normal and tumor cells. FIG. 7 is a schematic representation of the strategy used. Briefly, cell lines which produce a normal (i.e., full length human APC) and mutant (i.e., truncated human APC) were lysed, and the lysate combined with either biotinylated […] or biotinylated anti-APC monoclonal antibody. Molecules bound to the biotinylated probes were collected by binding to streptavidin, and the bound molecules released from the beads followed by SDS-PAGE, blotting of the gels, and detection with a biotinylated APC antibody. […] was detected on X-ray film. These steps are elaborated in more detail as follows.
# Cells were harvested at 90-100% confluency. Cells were washed twice with ice-cold Dulbecco's phosphate buffered saline (Gibco BRL) containing magnesium chloride and calcium chloride, scraped into 15 mL ice cold D-PBS and pelleted in a Beckman J-6 centrifuge for 5 minutes at 4° C. The cell pellet was resuspended in 1 mL ice-cold phosphate buffer, pH 8, containing 0.2% NP-40, 400 μg/mL of Pefabloc SC (Boehringer Mannheim) and 10 μg/mL each of leupeptin, pepstatin, and aprotinin. The suspension was sonicated 3×30s at 4° C., then pelleted for 15 minutes at 4° C. in a microcentrifuge. This supernatant, which should contain both nuclear and cytosolic proteins was used for APC precipitation.
# 2 nmol biotinylated probe (B-Probe), unbiotinylated probe (Probe) or D-biotin were added to aliquots of cell lysate (aliquots typically contained 1.5-2 mg total protein by Bradford assay) and incubated with constant rocking for one hour at 4° C. After one hour, 2 mg streptavidin magnetic particles (Boehringer Mannheim) were added to each reaction and incubated, rocking, for one hour at 4° C. Streptavidin magnetic particles were preblocked overnight in lysis buffer containing 2.5% bovine serum and 2.5% casamino acids (Difco). […]
Substance,Apparent Tm ([1]; 8.0 μM peptide) [°C],Tm (thermal stability) [1] [°C],Apparent Tm ([1]; 20.0 μM peptide) [°C],Apparent Tm ([1]; 75.0 μM peptide) [°C],detection of APC fragments on Western blot [2],binding to GST fusion with the antisense sequence itself (GST-APC-probe) [3],coprecipitation of β-catenin ([4]; blots probed with β-catenin antibody),staining of precipitated proteins with antibodies to 20S proteasome p32 subunit and E-cadherin ([4]; data not shown),Apparent Tm (+/- 1.25° C.) ([1]; 8.0 μM peptide (Table 9)) [°C],Apparent Tm (+/- 1.25° C.) ([1]; 20.0 μM peptide (Table 9)) [°C],Apparent Tm (+/- 1.25° C.) ([1]; 75.0 μM peptide (Table 9)) [°C],"binding to / precipitation of wild-type and mutant APC at endogenous cell concentrations ([4]; human colon cancer cell lysates, Western blot with APC antibody)"
MAAKGDQLKKEVEALEYENSNLRKKLEDHKKKLTKLKTEISNAKKMLKQLYASI [anti-APCp1],45.0,52.3,52.3,59.6,can detect APC fragments with specificity,also bound to a GST fusion with the antisense sequence itself,coprecipitated β-catenin,no staining,–,–,–,–
[Nle]AAKGDQLKKEVEALEYENSNLRKKLEDHKKKLTKLKTEISNAKK[Nle]LKQLYASI [anti-APCp2],–,58.2,–,–,–,–,–,–,51.5,58.6,66.4,specific binding
